The target of this assay is BAG3 (BCL-2-associated athanogene 3) (human (endogenous in HEK293T)) (UniProt O95817). As to the kind of experiment: affinity purification with mass spectrometry; endogenous BAG3 immunoprecipitated with anti-BAG3 antibody and Protein A/G magnetic beads from HEK293T lysate; cells treated with DMSO (basal) or 10 µM MG132 for 6 h; IgG IP (MG132_IgG) as control; label-free quantification, three biological replicates.

Amino acid sequences for entries named in this document (tags omitted).
UniProt O95817: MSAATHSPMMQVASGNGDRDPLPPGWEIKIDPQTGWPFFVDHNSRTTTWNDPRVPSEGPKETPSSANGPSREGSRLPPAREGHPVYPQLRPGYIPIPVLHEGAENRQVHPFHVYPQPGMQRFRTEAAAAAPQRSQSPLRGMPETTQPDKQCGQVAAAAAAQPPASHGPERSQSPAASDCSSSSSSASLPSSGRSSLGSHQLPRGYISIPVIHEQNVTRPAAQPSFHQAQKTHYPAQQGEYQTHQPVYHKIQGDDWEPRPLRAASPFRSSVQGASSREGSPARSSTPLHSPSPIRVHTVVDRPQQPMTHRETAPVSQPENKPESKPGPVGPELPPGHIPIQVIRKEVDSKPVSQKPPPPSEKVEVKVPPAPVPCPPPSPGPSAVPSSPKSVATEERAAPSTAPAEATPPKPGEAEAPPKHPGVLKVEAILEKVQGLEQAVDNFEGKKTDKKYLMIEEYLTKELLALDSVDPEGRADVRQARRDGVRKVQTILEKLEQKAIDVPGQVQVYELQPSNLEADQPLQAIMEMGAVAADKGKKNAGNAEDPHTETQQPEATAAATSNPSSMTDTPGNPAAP

Results are given in words; binding and its absence hold for the method and conditions named. Binding seen in cells or lysates may run through a third protein. Here binding means that the protein was enriched with, or labelled near, the bait; the list need not be complete.

B1: motor protein KIF4B (protein, UniProt Q2VIQ3 1-1234)
chain: MKEEVKGIPVRVALRCRPLVPKEISEGCQMCLSFVPGETQVVVGTDKSFTYDFVFDPCTEQEEVFNKAVAPLIKGIFKGYNATVLAYGQTGSGKTYSMGGAYTAEQENEPTVGIIPRVIQLLFKEIDKKSDFEFTLKVSYLEIYNEEILDLLCPSREKAQINIREDPKEGIKIVGLTEKTVLVALDTVSCLEQGNNSRTVASTAMNSQSSRSHAIFTISIEQRKKSDKNCSFRSKLHLVDLAGSERQKKTKAEGDRLKEGININRGLLCLGNVISALGDDKKGSFVPYRDSKLTRLLQDSLGGNSHTLMIACVSPADSNLEETLSTLRYADRARKIKNKPIVNIDPHTAELNHLKQQVQQLQVLLLQAHGGTLPGSINAEPSENLQSLMEKNQSLVEENEKLSRCLSKAAGQTAQMLERIILTEQVNEKLNAKLEELRQHVACKLDLQKLVETLEDQELKENVEIICNLQQLITQLSDETVACTAAAIDTAVEEEAQVETSPETSRSSDAFTTQHALHQAQMSKEVVELNNALALKEALVRKMTQNDNQLQPIQFQYQDNIKNLELEVINLQKEKEELVRELQTAKKNVNQAKLSEHRHKLLQELEGQIADLKKKLNEQSKLLKLKESTERTVSKLNQEIWMMKNQRVQLMRQMKEDAEKFRQWKQKKDKEVIQLKERDRKRQYELLKLERNFQKQSSVLRRKTEEAAAANKRLKDALQKQREVTDKRKETQSHGKEGIAARVRNWLGNEIEVMVSTEEAKRHLNDLLEDRKILAQDVVQLKEKKESRENPPPKLRKCTFSLSEVHGQVLESEDCITKQIESLETEMELRSAQIADLQQKLLDAESEDRPKQCWENIATILEAKCALKYLIGELVSSKIHVTKLENSLRQSKASCADMQKMLFEEQNHFSEIETELQAELVRMEQQHQEKVLYLVSQLQESQMAEKQLEKSASEKEQQLVSTLQCQDEELEKMREVCEQNQQLLQENEIIKQKLILLQVASRQKHLPNDTLLSPDSSFEYIPPKPKPSRVKEKFLEQSMDIEDLKYCSEHSVNEHEDGDGDGDSDEGDDEEWKPTKLVKVSRKNIQGCSCKGWCGNKQCGCRKQKSDCGVDCSCDPTKCRNRQQGKDSLGTVEQTQDSEGSFKLEDPTEVTPGLSFFNPVCATPNSKILKEMCDMEQVLSKKTAPAPSPFDLPESKHGATEYQQNKPPGKKKKRALASNTSFFSGCSPIEEEAH
Regarding B1, the binding result is on record as “binds”.

B2: COPB2 (protein, UniProt P35606 1-906)
chain: MPLRLDIKRKLTARSDRVKSVDLHPTEPWMLASLYNGSVCVWNHETQTLVKTFEVCDLPVRAAKFVARKNWVVTGADDMQIRVFNYNTLERVHMFEAHSDYIRCIAVHPTQPFILTSSDDMLIKLWDWDKKWSCSQVFEGHTHYVMQIVINPKDNNQFASASLDRTIKVWQLGSSSPNFTLEGHEKGVNCIDYYSGGDKPYLISGADDRLVKIWDYQNKTCVQTLEGHAQNVSCASFHPELPIIITGSEDGTVRIWHSSTYRLESTLNYGMERVWCVASLRGSNNVALGYDEGSIIVKLGREEPAMSMDANGKIIWAKHSEVQQANLKAMGDAEIKDGERLPLAVKDMGSCEIYPQTIQHNPNGRFVVVCGDGEYIIYTAMALRNKSFGSAQEFAWAHDSSEYAIRESNSIVKIFKNFKEKKSFKPDFGAESIYGGFLLGVRSVNGLAFYDWDNTELIRRIEIQPKHIFWSDSGELVCIATEESFFILKYLSEKVLAAQETHEGVTEDGIEDAFEVLGEIQEIVKTGLWVGDCFIYTSSVNRLNYYVGGEIVTIAHLDRTMYLLGYIPKDNRLYLGDKELNIISYSLLVSVLEYQTAVMRRDFSMADKVLPTIPKEQRTRVAHFLEKQGFKQQALTVSTDPEHRFELALQLGELKIAYQLAVEAESEQKWKQLAELAISKCQFGLAQECLHHAQDYGGLLLLATASGNANMVNKLAEGAERDGKNNVAFMSYFLQGKVDACLELLIRTGRLPEAAFLARTYLPSQVSRVVKLWRENLSKVNQKAAESLADPTEYENLFPGLKEAFVVEEWVKETHADLWPAKQYPLVTPNEERNVMEEGKDFQPSRSTAQQELDGKPASPTPVIVASHTANKEEKSLLELEVDLDNLELEDIDTTDINLDEDILDD
In the case of B2, the binding entry is given as “binds”.

B3: Kinesin-like protein KIF7 (protein, UniProt Q2M1P5 1-1343)
chain: MGLEAQRLPGAEEAPVRVALRVRPLLPKELLHGHQSCLQVEPGLGRVTLGRDRHFGFHVVLAEDAGQEAVYQACVQPLLEAFFEGFNATVFAYGQTGSGKTYTMGEASVASLLEDEQGIVPRAMAEAFKLIDENDLLDCLVHVSYLEVYKEEFRDLLEVGTASRDIQLREDERGNVVLCGVKEVDVEGLDEVLSLLEMGNAARHTGATHLNHLSSRSHTVFTVTLEQRGRAPSRLPRPAPGQLLVSKFHFVDLAGSERVLKTGSTGERLKESIQINSSLLALGNVISALGDPQRRGSHIPYRDSKITRILKDSLGGNAKTVMIACVSPSSSDFDETLNTLNYASRAQNIRNRATVNWRPEAERPPEETASGARGPPRHRSETRIIHRGRRAPGPATASAAAAMRLGAECARYRACTDAAYSLLRELQAEPGLPGAAARKVRDWLCAVEGERSALSSASGPDSGIESASVEDQAAQGAGGRKEDEGAQQLLTLQNQVARLEEENRDFLAALEDAMEQYKLQSDRLREQQEEMVELRLRLELVRPGWGGPRLLNGLPPGSFVPRPHTAPLGGAHAHVLGMVPPACLPGDEVGSEQRGEQVTNGREAGAELLTEVNRLGSGSSAASEEEEEEEEPPRRTLHLRRNRISNCSQRAGARPGSLPERKGPELCLEELDAAIPGSRAVGGSKARVQARQVPPATASEWRLAQAQQKIRELAINIRMKEELIGELVRTGKAAQALNRQHSQRIRELEQEAEQVRAELSEGQRQLRELEGKELQDAGERSRLQEFRRRVAAAQSQVQVLKEKKQATERLVSLSAQSEKRLQELERNVQLMRQQQGQLQRRLREETEQKRRLEAEMSKRQHRVKELELKHEQQQKILKIKTEEIAAFQRKRRSGSNGSVVSLEQQQKIEEQKKWLDQEMEKVLQQRRALEELGEELHKREAILAKKEALMQEKTGLESKRLRSSQALNEDIVRVSSRLEHLEKELSEKSGQLRQGSAQSQQQIRGEIDSLRQEKDSLLKQRLEIDGKLRQGSLLSPEEERTLFQLDEAIEALDAAIEYKNEAITCRQRVLRASASLLSQCEMNLMAKLSYLSSSETRALLCKYFDKVVTLREEQHQQQIAFSELEMQLEEQQRLVYWLEVALERQRLEMDRQLTLQQKEHEQNMQLLLQQSRDHLGEGLADSRRQYEARIQALEKELGRYMWINQELKQKLGGVNAVGHSRGGEKRSLCSEGRQAPGNEDELHLAPELLWLSPLTEGAPRTREETRDLVHAPLPLTWKRSSLCGEEQGSPEELRQREAAEPLVGRVLPVGEAGLPWNFGPLSKPRRELRRASPGMIDVRKNPL
Regarding B3, the binding result is on record as “binds”.

B4: ARCN1/COPD (protein, UniProt P48444 1-511)
chain: MVLLAAAVCTKAGKAIVSRQFVEMTRTRIEGLLAAFPKLMNTGKQHTFVETESVRYVYQPMEKLYMVLITTKNSNILEDLETLRLFSRVIPEYCRALEENEISEHCFDLIFAFDEIVALGYRENVNLAQIRTFTEMDSHEEKVFRAVRETQEREAKAEMRRKAKELQQARRDAERQGKKAPGFGGFGSSAVSGGSTAAMITETIIETDKPKVAPAPARPSGPSKALKLGAKGKEVDNFVDKLKSEGETIMSSSMGKRTSEATKMHAPPINMESVHMKIEEKITLTCGRDGGLQNMELHGMIMLRISDDKYGRIRLHVENEDKKGVQLQTHPNVDKKLFTAESLIGLKNPEKSFPVNSDVGVLKWRLQTTEESFIPLTINCWPSESGNGCDVNIEYELQEDNLELNDVVITIPLPSGVGAPVIGEIDGEYRHDSRRNTLEWCLPVIDAKNKSGSLEFSIAGQPNDFFPVQVSFVSKKNYCNIQVTKVTQVDGNSPVRFSTETTFLVDKYEIL
For B4, the binding result is given as “binds”.

B5: WDR11 (protein, UniProt Q9BZH6 1-1224)
chain: MLPYTVNFKVSARTLTGALNAHNKAAVDWGWQGLIAYGCHSLVVVIDSITAQTLQVLEKHKADVVKVKWARENYHHNIGSPYCLRLASADVNGKIIVWDVAAGVAQCEIQEHAKPIQDVQWLWNQDASRDLLLAIHPPNYIVLWNADTGTKLWKKSYADNILSFSFDPFDPSHLTLLTSEGIVFISDFSPSKPPSGPGKKVYISSPHSSPAHNKLATATGAKKALNKVKILITQEKPSAEFITLNDCLQLAYLPSKRNHMLLLYPREILILDLEVNQTVGVIAIERTGVPFLQVIPCFQRDGLFCLHENGCITLRVRRSYNNIFTTSNEEPDPDPVQELTYDLRSQCDAIRVTKTVRPFSMVCCPVNENAAALVVSDGRVMIWELKSAVCNRNSRNSSSGVSPLYSPVSFCGIPVGVLQNKLPDLSLDNMIGQSAIAGEEHPRGSILREVHLKFLLTGLLSGLPAPQFAIRMCPPLTTKNIKMYQPLLAVGTSNGSVLVYHLTSGLLHKELSIHSCEVKGIEWTSLTSFLSFATSTPNNMGLVRNELQLVDLPTGRSIAFRGERGNDESAIEMIKVSHLKQYLAVVFRDKPLELWDVRTCTLLREMSKNFPTITALEWSPSHNLKSLRKKQLATREAMARQTVVSDTELSIVESSVISLLQEAESKSELSQNISAREHFVFTDIDGQVYHLTVEGNSVKDSARIPPDGSMGSITCIAWKGDTLVLGDMDGNLNFWDLKGRVSRGIPTHRSWVRKIRFAPGKGNQKLIAMYNDGAEVWDTKEVQMVSSLRSGRNVTFRILDVDWCTSDKVILASDDGCIRVLEMSMKSACFRMDEQELTEPVWCPYLLVPRASLALKAFLLHQPWNGQYSLDISHVDYPENEEIKNLLQEQLNSLSNDIKKLLLDPEFTLLQRCLLVSRLYGDESELHFWTVAAHYLHSLSQEKSASTTAPKEAAPRDKLSNPLDICYDVLCENAYFQKFQLERVNLQEVKRSTYDHTRKCTDQLLLLGQTDRAVQLLLETSADNQHYYCDSLKACLVTTVTSSGPSQSTIKLVATNMIANGKLAEGVQLLCLIDKAADACRYLQTYGEWNRAAWLAKVRLNPEECADVLRRWVDHLCSPQVNQKSKALLVLLSLGCFFSVAETLHSMRYFDRAALFVEACLKYGAFEVTEDTEKLITAIYADYARSLKNLGFKQGAVLFASKAGAAGKDLLNELESPKEEPIEE
As to B5, the binding result is “binds”.

B6: CEP55 (protein, UniProt Q53EZ4 1-464)
chain: MSSRSTKDLIKSKWGSKPSNSKSETTLEKLKGEIAHLKTSVDEITSGKGKLTDKERHRLLEKIRVLEAEKEKNAYQLTEKDKEIQRLRDQLKARYSTTTLLEQLEETTREGERREQVLKALSEEKDVLKQQLSAATSRIAELESKTNTLRLSQTVAPNCFNSSINNIHEMEIQLKDALEKNQQWLVYDQQREVYVKGLLAKIFELEKKTETAAHSLPQQTKKPESEGYLQEEKQKCYNDLLASAKKDLEVERQTITQLSFELSEFRRKYEETQKEVHNLNQLLYSQRRADVQHLEDDRHKTEKIQKLREENDIARGKLEEEKKRSEELLSQVQFLYTSLLKQQEEQTRVALLEQQMQACTLDFENEKLDRQHVQHQLHVILKELRKARNQITQLESLKQLHEFAITEPLVTFQGETENREKVAASPKSPTAALNESLVECPKCNIQYPATEHRDLLVHVEYCSK
In the case of B6, the binding result is listed as “binds”.

Values taken from article PMC7694386.
